Bridges are numbered along the chain shown (N, C = ends). Where no end group is shown, it is not given here. [ ]: non-standard residue; d: D form. Bip = N[C@@H](Cc1ccc(-c2ccccc2)cc1)C(=O)O; 1Nal = N[C@@H](Cc1cccc2ccccc12)C(=O)O; 2Nal = N[C@@H](Cc1ccc2ccccc2c1)C(=O)O; d2Nal = N[C@H](Cc1ccc2ccccc2c1)C(=O)O; hArg = N=C(N)NCCCC[C@H](N)C(=O)O; hCha = N[C@@H](CCC1CCCCC1)C(=O)O; Cha = N[C@@H](CC1CCCCC1)C(=O)O; hLeu = CC(C)CC[C@H](N)C(=O)O; Nle = CCCC[C@H](N)C(=O)O; Ahx = NCCCCCC(=O)O; GABA = NCCCC(=O)O; βAla = NCCC(=O)O
assay: general procedure: Fmoc solid-phase peptide synthesis; Rink Amide MBHA resin (0.58 mmol/g); Wang resin for C-terminal OH; MBHA resin (0.91 mmol/g) for Boc chemistry; DIC/HOBt, double-coupling with HBTU/HOBt/DIEA; HBTU/DIEA (Boc); conditions: whole synthesis, scale of the general procedure 0.035 mmol, 0.20 mmol

Going from “[dF]CH[dF]RW[βAla][dC]T-NH2 (disulfide 2-8)” to “Ac-Nle-c(Cys-D-Ile-His-D-Phe-Arg-Trp-Cys)-NH2”, the “purity (crude or final not stated)” value rises from 93% to 99.9%.

Going from “Ac-Nle-c(D-Cys-Aib-His-D-Phe-Arg-Trp-D-Cys)-NH2” to “Ac-Nle-c(Asp-D-Ala-His-D-Phe-Arg-Bal-Ala-Lys)-NH2”, the “purity (crude or final not stated)” value rises from 95% to 99.9%.

Compared with “Ac-[Nle]CH[d2Nal]RW[Ahx]C-NH2 (disulfide 2-8)”, “Ac-Nle-c(Cys-D-Leu-His-D-Phe-Arg-Trp-Cys)-NH2” is lower in “purity (crude or final not stated)” value: 99% for the first, 97.4% for the second.

Compared with Ac-[Nle]CGH[dF]RWC-NH2 (disulfide 2-8), Ac-[Nle]D[dA]H[dF]RWK-NH2 (lactam 2-8) is higher in “purity (crude or final not stated)” value: 90% for the first, 96.2% for the second.

Compared with “Ac-[Nle]DH[dF]R[dW][dA]K-NH2 (lactam 2-8)”, “Ac-Nle-c(Cys-D-Ala-His-D-2-Nal-Arg-Trp-Cys)-NH2” is lower in “purity (crude or final not stated)” value: 97% for the first, 96.1% for the second.

Compared with “nButanoyl-Nle-c(Cys-D-Ala-His-D-Phe-Arg-2-Nal-Cys)-NH2”, Ac-LDH[dF]R[dW]AK-NH2 (lactam 2-8) is higher in “purity (crude or final not stated)” value: 95.7% for the first, 98.6% for the second.

Going from Ac-[hCha]DH[dF]R[dW]AK-NH2 (lactam 2-8) to “Ac-Nle-c(Cys-D-Abu-His-D-Phe-Arg-Trp-Cys)-NH2”, the “purity (crude or final not stated)” value rises from 87% to 99.9%.

Going from “Ac-Nle-c(Asp-His-D-2-Nal-Arg-Trp-Ala-Lys)-NH2” to “Ac-Nle-c(Cys-D-Ala-His-D-Phe-Arg-Trp-D-Cys)-NH2”, the “purity (crude or final not stated)” value falls from 99.99% to 66%.

First: Ac-Nle-c(Cys-His-D-Phe-Arg-Trp-Apn-Cys)-NH2
Second: Ac-[Nle]C[dA]H[dF]RWAC-NH2 (disulfide 2-9)
The “purity (crude or final not stated)” value of the first is higher: 99% for the first, 95.3% for the second.

Compared with “Ac-[Nle]CGH[dF]RW[dC]-NH2 (disulfide 2-8)”, “Ac-Nle-c(Pen-D-Ala-His-D-Phe-Arg-Trp-Pen)-NH2” is higher in “purity (crude or final not stated)” value: 91% for the first, 99.9% for the second.

Compared with “Ac-D-Arg-c(Cys-D-Ala-His-D-Phe-Arg-Trp-Pen)-NH2”, Ac-FCH[dF]RW[GABA]C-NH2 (disulfide 2-8) is lower in “purity (crude or final not stated)” value: 96.4% for the first, 95.2% for the second.

Compared with “D-Phe-c(Cys-His-D-(Et)Tyr-hArg-Trp-β-Ala-D-Cys)-Thr-NH2”, “Ac-[Nle]CH[dF]RW[Ahx]C-NH2 (disulfide 2-8)” is higher in “purity (crude or final not stated)” value: 97% for the first, 98% for the second.

First: Ac-[Nle][dC]GH[dF]RWC-NH2 (disulfide 2-8)
Second: Ac-Nle-c(Cys-β-Ala-His-D-Phe-Arg-Trp-Cys)-NH2
The “purity (crude or final not stated)” value of the first is higher: 96% for the first, 91% for the second.

First: Ac-[Nle]C[dA]H[d2Nal]R[2Nal]C-NH2 (disulfide 2-8)
Second: [dF]CH[dF]R[Bip][βAla][dC]T-NH2 (disulfide 2-8)
The “purity (crude or final not stated)” value of the first is higher: 99.1% for the first, 99% for the second.

Compared with “Ac-Nle-c(Cys-D-Ala-His-D-Phe-Arg-Bal-Cys)-NH2”, “Ac-Nle-c(Cys-D-Cha-His-D-Phe-Arg-Trp-Cys)-NH2” is higher in “purity (crude or final not stated)” value: 96.2% for the first, 96.4% for the second.

Compared with “Ac-Nle-c(Asp-His-D-Phe-Arg-D-Trp-Apn-Lys)-NH2”, Ac-C[dA]H[dF]RWAC-NH2 (disulfide 1-8) is lower in “purity (crude or final not stated)” value: 97.3% for the first, 95.2% for the second.

Compared with Ac-FDH[dF]R[dW]AK-NH2 (lactam 2-8), “Ac-Nle-c(Asp-His-D-Phe-Arg-Trp-D-Ala-Lys)-NH2” is higher in “purity (crude or final not stated)” value: 81.9% for the first, 99.9% for the second.

Compared with “Ac-[Nle]C[dA]H[dF]RW[dA]C-NH2 (disulfide 2-9)”, “Ac-Nle-c(D-Cys-Ala-His-D-Phe-Arg-Trp-Cys)-NH2” is lower in “purity (crude or final not stated)” value: 96.4% for the first, 93% for the second.

Compared with “Ac-Nle-c(Cys-His-D-Phe-Arg-D-Trp-Ahx-Cys)-NH2”, “Ac-Nle-c(Cys-D-Ala-His-D-Phe-Arg-Trp-Pen)-NH2” is higher in “purity (crude or final not stated)” value: 99% for the first, 99.9% for the second.

First: Ac-D-Arg-c(Asp-His-D-Phe-Arg-Trp-Ala-Lys)-NH2
Second: Ac-Nle-c(D-Cys-D-Ala-His-D-Phe-Arg-Trp-D-Cys)-NH2
The “purity (crude or final not stated)” value of the first is higher: 98.0% for the first, 93% for the second.

“Ac-Nle-c(Cys-D-Ala-His-D-Phe-Arg-Trp-Gly-Cys)-NH2” and “Ac-Nle-c(Cys-D-Ala-His-D-Phe-Arg-Trp-Apn-Cys)-NH2” are the same in “purity (crude or final not stated)” value: 96.8% for the first, 96.8% for the second.

First: Ac-Nle-c(D-Cys-Ala-His-D-Phe-Arg-Trp-D-Cys)-NH2
Second: Ac-Nle-c(Cys-D-Ala-His-D-Phe-Arg-Trp-Pen)-OH
The “purity (crude or final not stated)” value of the first is lower: 65% for the first, 99.9% for the second.

First: Ac-Arg-c(Asp-His-D-Phe-Arg-Trp-Ala-Lys)-NH2
Second: Ac-Nle-c(D-Cys-β-Ala-His-D-Phe-Arg-Trp-D-Cys)-NH2
The “purity (crude or final not stated)” value of the first is higher: 99.0% for the first, 92% for the second.

Compared with “Ac-Nle-c(Asp-His-D-Phe-Arg-D-Trp-Aha-Lys)-NH2”, “Ac-Nle-c(Asp-His-D-Phe-Arg-D-Trp-β-Lys)-NH2” is lower in “purity (crude or final not stated)” value: 98% for the first, 82% for the second.

Going from “Ac-Arg-c(Cys-D-Ala-His-D-Phe-Arg-Trp-Pen)-NH2” to “Ac-Nle-c(Cys-D-Glu-His-D-Phe-Arg-Trp-Cys)-NH2”, the “purity (crude or final not stated)” value rises from 99% to 99.9%.

First: Ac-[Nle]C[dA]H[d2Nal]R[1Nal]C-NH2 (disulfide 2-8)
Second: [dF]CH[dF][hArg][Bip][βAla][dC]T-NH2 (disulfide 2-8)
The “purity (crude or final not stated)” value of the first is lower: 94.8% for the first, 99% for the second.

Compared with “Ac-Nle-c(D-Cys-Aib-His-D-Phe-Arg-Trp-Cys)-NH2”, “Ac-C[dA]H[dF]R[2Nal]AC-NH2 (disulfide 1-8)” is higher in “purity (crude or final not stated)” value: 91% for the first, 95.6% for the second.

First: Ac-Nle-c(Asp-D-Ala-His-D-Phe-Arg-Bal-Lys)-NH2
Second: Ac-[Nle]C[dA]H[dF]R[1Nal]C-NH2 (disulfide 2-8)
The “purity (crude or final not stated)” value of the first is lower: 96.5% for the first, 96.6% for the second.

Compared with “D-Phe-c(Cys-His-D-(Et)Tyr-hArg-Bip-β-Ala-D-Cys)-Thr-NH2”, “Ac-Nle-c(Cys-β-Ala-His-D-Phe-Arg-Trp-D-Cys)-NH2” is lower in “purity (crude or final not stated)” value: 99% for the first, 94% for the second.

Compared with “Ac-Nle-c(Cys-His-D-Phe-Arg-D-Trp-Apn-Cys)-NH2”, Ac-[Cha]DH[dF]R[dW]AK-NH2 (lactam 2-8) is lower in “purity (crude or final not stated)” value: 99% for the first, 85% for the second.

First: Ac-Nle-c(Cys-Aib-His-D-Phe-Arg-Trp-D-Cys)-NH2
Second: Ac-Nle-c(Cys-D-Val-His-D-Phe-Arg-Trp-Cys)-NH2
The “purity (crude or final not stated)” value of the first is lower: 90% for the first, 99.9% for the second.

First: Nle-c(Cys-His-D-Phe-Arg-Trp-Apn-Cys)-NH2
Second: [dF]CH[dF][hArg]W[βAla][dC]T-NH2 (disulfide 2-8)
The “purity (crude or final not stated)” value of the first is higher: 98.5% for the first, 96.9% for the second.

Compared with [dF]CH[dF]RWA[dC]T-NH2 (disulfide 2-8), “Ac-Nle-c(D-Cys-β-Ala-His-D-Phe-Arg-Trp-Cys)-NH2” is lower in “purity (crude or final not stated)” value: 99% for the first, 92% for the second.

“nButanoyl-Nle-c(Cys-D-Ala-His-D-Phe-Arg-Trp-Cys)-NH2” and “Ac-Nle-c(Cys-His-D-Phe-Arg-D-Trp-D-Ala-Cys)-NH2” are the same in “purity (crude or final not stated)” value: 99.9% for the first, 99.9% for the second.

Going from “Ac-Nle-c(Cys-D-Ala-His-D-2-Nal-Arg-Bal-Cys)-NH2” to “Ac-Nle-c(Asp-His-D-2-Nal-Arg-Trp-βAla-Lys)-NH2”, the “purity (crude or final not stated)” value rises from 95.6% to 99.99%.

Going from “Ac-Nle-c(D-Cys-D-Ala-His-D-Phe-Arg-Trp-Cys)-NH2” to “Ac-[Nle]C[dA]H[dF]R[2Nal]C-NH2 (disulfide 2-8)”, the “purity (crude or final not stated)” value rises from 81% to 97.7%.

“Ac-Nle-c(Cys-D-Ala-His-D-Phe-Arg-Trp-Cys)-OH” and Ac-CEH[dF]RWAC-NH2 (disulfide 1-8) are the same in “purity (crude or final not stated)” value: 99.9% for the first, 99.9% for the second.

Going from “Ac-Nle-c(Asp-His-D-Phe-Arg-Trp-β-Ala-Lys)-NH2” to “Ac-Nle-c(Pen-D-Ala-His-D-Phe-Arg-Trp-Cys)-NH2”, the “purity (crude or final not stated)” value rises from 96.4% to 99.9%.

Going from “Ac-Nle-c(Cys-Aib-His-D-Phe-Arg-Trp-Cys)-NH2” to “Ac-Nle-c(Cys-D-Tle-His-D-Phe-Arg-Trp-Cys)-NH2”, the “purity (crude or final not stated)” value rises from 80% to 96.5%.

Going from “Ac-Nle-c(Cys-His-D-Phe-Arg-D-Trp-β-Ala-Cys)-NH2” to “Ac-c(Cys-Glu-His-D-Phe-Arg-2-Nal-Ala-Cys)-NH2”, the “purity (crude or final not stated)” value falls from 99.9% to 98.3%.

First: Ac-[hLeu]DH[dF]R[dW]AK-NH2 (lactam 2-8)
Second: Ac-Nle-c(Asp-His-D-Phe-Arg-Trp-A6c-Lys)-NH2
The “purity (crude or final not stated)” value of the first is lower: 93.8% for the first, 96% for the second.

With “Ac-Nle-c(Asp-His-D-Phe-Arg-Trp-Apn-Lys)-NH2” the “purity (crude or final not stated)” value was 99%.

same assay, conditions: whole synthesis, scale of the general procedure 0.035 mmol, 0.20 mmol; run 1

Going from “Ac-Nle-c(Cys-D-Ala-His-D-Phe-Arg-Trp-Gaba-Cys)-NH2” to “Ac-Nle-c(Cys-D-Ala-His-D-Phe-Arg-Trp-β-Ala-Cys)-NH2”, the “purity (crude or final not stated)” value rises from 95.1% to 98.2%.

same assay, conditions: whole synthesis, scale of the general procedure 0.035 mmol, 0.20 mmol; run 2

First: Ac-Nle-c(Cys-D-Ala-His-D-Phe-Arg-Trp-Gaba-Cys)-NH2
Second: Ac-Nle-c(Cys-D-Ala-His-D-Phe-Arg-Trp-β-Ala-Cys)-NH2
The “purity (crude or final not stated)” value of the first is lower: 96.5% for the first, 97.3% for the second.

assay: peptide synthesis; conditions: whole synthesis

First: Ac-ICH[dF]RW[GABA]C-NH2 (disulfide 2-8)
Second: Ac-Nle-c(Cys-Gaba-His-D-Phe-Arg-Trp-Cys)-NH2
The “purity (crude or final not stated)” value of the first is higher: 95% for the first, 93% for the second.

Going from “Ac-Cha-c(Asp-His-D-Phe-Arg-Trp-Gaba-Lys)-NH2;” to “Ac-hPro-c(Asp-His-D-Phe-Arg-Trp-Gaba-Lys)-NH2”, the “purity (crude or final not stated)” value rises from 94.5% to 99%.

“Ac-hPhe-c(Asp-His-D-2-Nal-Arg-Trp-Gaba-Lys)-NH2” and “Ac-D-Chg-c(Asp-His-D-Phe-Arg-Trp-Gaba-Lys)-NH2” are the same in “purity (crude or final not stated)” value: 99% for the first, 99% for the second.

With “Ac-Gaba-c(Asp-His-D-Phe-Arg-Trp-Gaba-Lys)-NH2” the “purity (crude or final not stated)” value was 92.5%.

From patent US9458195B2 (Ipsen Pharma S.A.S., priority 2005, dated 2016)
